From patent US4179516A, “Ethers of 3,4-dihydro-1-benzoxepin-5-one oxime to treat intestinal disorders” (Albert Rolland, S.A., priority 1973, dated 1979) come the findings set out here.

A short description of this data set: in vivo. The conditions noted are these: mouse. As to the method:
The tests were carried out on acid addition salts of the amines of the general formula.
The acute toxicity was determined in male Swiss C.D. mice weighing an average of 20 grammes, after oral administration (P.O) and intravenous administration (I.V.).

Usually LD50 stands for the dose expected to kill half of the subjects tested. A lower LD50 goes with a more toxic substance. Turning to `CN1[C@@H]2CC[C@H]1C[C@@H](OC(=O)C(CO)c1ccccc1)C2` (some centres unmarked) [ATROPINE, reference compound], the median lethal dose (LD50) worked out at 90 mg/kg (iv) and 600 mg/kg (po).
